Data from patent US20240301056A1 (APITBIO, published 2024).
No constants are given. Whether binding was seen depends on the method and setting. Some entries that bind do so weakly or less than the wild type.

The chains behind the UniProt entries cited, without tags or fusion partners. Where a name states a change or a piece, a line headed by the entry shows the natural chain unless it says otherwise.
UniProt P32004: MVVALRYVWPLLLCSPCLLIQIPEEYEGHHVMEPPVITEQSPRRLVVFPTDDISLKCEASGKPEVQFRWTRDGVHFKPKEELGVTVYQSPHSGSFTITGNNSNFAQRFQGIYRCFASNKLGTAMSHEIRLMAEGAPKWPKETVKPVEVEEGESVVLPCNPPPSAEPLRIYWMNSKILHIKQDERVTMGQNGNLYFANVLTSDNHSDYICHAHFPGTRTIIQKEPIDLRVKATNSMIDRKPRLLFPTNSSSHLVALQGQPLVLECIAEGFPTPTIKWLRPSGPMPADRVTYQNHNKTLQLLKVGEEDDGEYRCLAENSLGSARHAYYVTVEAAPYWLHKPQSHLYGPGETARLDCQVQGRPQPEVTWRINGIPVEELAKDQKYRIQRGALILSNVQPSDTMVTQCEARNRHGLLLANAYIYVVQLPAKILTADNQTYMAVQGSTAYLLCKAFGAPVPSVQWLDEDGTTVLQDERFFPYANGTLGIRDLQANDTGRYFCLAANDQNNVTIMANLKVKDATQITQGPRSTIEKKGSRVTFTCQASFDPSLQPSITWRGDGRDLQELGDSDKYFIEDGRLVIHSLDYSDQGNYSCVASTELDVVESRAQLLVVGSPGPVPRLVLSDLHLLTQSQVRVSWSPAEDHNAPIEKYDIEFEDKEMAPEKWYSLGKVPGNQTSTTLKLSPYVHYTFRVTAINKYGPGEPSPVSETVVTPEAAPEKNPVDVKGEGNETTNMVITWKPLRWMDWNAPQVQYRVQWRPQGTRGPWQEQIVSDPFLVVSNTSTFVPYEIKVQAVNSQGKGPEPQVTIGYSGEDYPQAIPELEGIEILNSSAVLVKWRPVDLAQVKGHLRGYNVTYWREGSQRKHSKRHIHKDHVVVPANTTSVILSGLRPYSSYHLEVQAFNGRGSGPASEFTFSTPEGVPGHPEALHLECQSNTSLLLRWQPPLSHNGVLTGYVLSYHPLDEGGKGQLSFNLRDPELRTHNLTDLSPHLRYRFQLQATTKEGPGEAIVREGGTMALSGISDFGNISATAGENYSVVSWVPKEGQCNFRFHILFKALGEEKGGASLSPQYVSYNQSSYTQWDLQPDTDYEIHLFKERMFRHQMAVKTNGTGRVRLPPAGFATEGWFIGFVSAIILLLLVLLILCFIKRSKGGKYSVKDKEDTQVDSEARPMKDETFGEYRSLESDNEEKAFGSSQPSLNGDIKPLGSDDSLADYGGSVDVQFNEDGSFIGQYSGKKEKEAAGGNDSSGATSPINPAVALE

Columns and labels:
[1] = target: Human L1CAM on NCI-H522 and SKOV3 cells (human) (UniProt P32004); test: flow cytometry, antibody at 10 ug/ml, FITC anti-human IgG Fc
[2] = target: Human L1CAM on NCI-H522 and SKOV3 cells (human) (UniProt P32004); test: flow cytometry on NCI-H522 cells, antibody 10 ug/ml, FITC anti-human IgG Fc secondary
[3] = target: Human L1CAM on NCI-H522 and SKOV3 cells (human) (UniProt P32004); test: flow cytometry on SKOV3 cells, antibody 10 ug/ml, FITC anti-human IgG Fc secondary

Measured: binding

B1: Ab4H5 antibody (antibody, human IgG1, kappa, V domains shown)
VH: EVQLVESGGGVVQPGGSLRLSCAASGFTFSRFGMHWVRQAPGKGLEWVAFISNEGSNKYYADSVKGRFTISRDNSANTLYLQMNSLRAEDTAVYYCARGRAYGSGSLFDPWGQGTLVTVSS
VL: DIQLTQSPSSLSASVGDRVTITCRASRTISSYVNWYRQRPGKAPESLIYAASNLHSGVPSRFSGSGSGTDFTLTISSLQPEDFATYYCQQAGFYTPWTFGQGTKLEIKR
notes: Whole human IgG1, kappa; also called Anti-L1CAM ("Ab4H5"); Ab4H5 mutant
binds: [1] | [2] | [3]

B2: Ab612 antibody (antibody, human IgG1, kappa, V domains shown)
VH: EVQLVESGGGVVQPGGSLRLSCAASGFTFSRFGMHWVRQAPGKGLEWVAFISNEGSNKYYADSVKGRFTISRDNSANTLYLQMNSLRAEDTAVYYCARGRAYGSGSLFDPWGQGTLVTVSS
VL: DIQLTQSPSSLSASVGDRVTITCRASRTISSYVNWYRQRPGKAPESLIYAASNLHSGVPSRFSGSGSGTDFTLTISSLQPEDFATYYCQQSIGRGPVTFGQGTKLEIKR
notes: Whole human IgG1, kappa, purified on protein A; also called Anti-L1CAM ("Ab612")
binds: [1] | [2] | [3]

B3: Ab4H6 antibody (antibody, human IgG1, kappa, V domains shown)
VH: EVQLVESGGGVVQPGGSLRLSCAASGFTFSRFGMHWVRQAPGKGLEWVAFISNEGSNKYYADSVKGRFTISRDNSANTLYLQMNSLRAEDTAVYYCARGRAYGSGSLFDPWGQGTLVTVSS
VL: DIQLTQSPSSLSASVGDRVTITCRASRTISSYVNWYRQRPGKAPESLIYAASNLHSGVPSRFSGSGSGTDFTLTISSLQPEDFATYYCQQSLHFYPWTFGQGTKLEIKR
notes: Whole human IgG1, kappa; also called Anti-L1CAM ("Ab4H6"); Ab4H6 mutant
binds: [1] | [2] | [3]

B4: Ab2C2 antibody (antibody, human IgG1, kappa, V domains shown)
VH: EVQLVESGGGVVQPGGSLRLSCAASGFTFSRFGMHWVRQAPGKGLEWVAFISNEGSNKYYADSVKGRFTISRDNSANTLYLQMNSLRAEDTAVYYCARGRAYGSGSLFDPWGQGTLVTVSS
VL: DIQLTQSPSSLSASVGDRVTITCRASRTISSYVNWYRQRPGKAPESLIYAASNLHSGVPSRFSGSGSGTDFTLTISSLQPEDFATYYCQQAGFYSPWTFGQGTKLEIKR
notes: Whole human IgG1, kappa; also called Anti-L1CAM ("Ab2C2"); Ab2C2 mutant
binds: [1] | [2] | [3]

B5: Ab5D12 antibody (antibody, human IgG1, kappa, V domains shown)
VH: EVQLVESGGGVVQPGGSLRLSCAASGFTFSRFGMHWVRQAPGKGLEWVAFISNEGSNKYYADSVKGRFTISRDNSANTLYLQMNSLRAEDTAVYYCARGRAYGSGSLFDPWGQGTLVTVSS
VL: DIQLTQSPSSLSASVGDRVTITCRASRTISSYVNWYRQRPGKAPESLIYAASNLHSGVPSRFSGSGSGTDFTLTISSLQPEDFATYYCQQSLVWYPWTFGQGTKLEIKR
notes: Whole human IgG1, kappa; also called Anti-L1CAM ("Ab5D12"); Ab5D12 mutant
binds: [1] | [2] | [3]
